Results taken from US7759369B2, “Pyridine compounds for the treatment of prostaglandin mediated diseases” (Glaxo Group Limited, priority 2004, dated 2010).
Some entries share one result that the patent states for a list of compounds.

Tests used:
EP1 receptors = target: T1, EP1 receptors (Homo sapiens, UniProt P34995); assay: Binding assay for the human prostanoid EP1 receptor (competition with [3H]-PGE2); parameters: expressed in transfected cells; host or cells: CHO-K1 (membrane fraction); settings: averages of a number of experiments; Example 3 as sodium salt
T1 sequence (P34995 1-402): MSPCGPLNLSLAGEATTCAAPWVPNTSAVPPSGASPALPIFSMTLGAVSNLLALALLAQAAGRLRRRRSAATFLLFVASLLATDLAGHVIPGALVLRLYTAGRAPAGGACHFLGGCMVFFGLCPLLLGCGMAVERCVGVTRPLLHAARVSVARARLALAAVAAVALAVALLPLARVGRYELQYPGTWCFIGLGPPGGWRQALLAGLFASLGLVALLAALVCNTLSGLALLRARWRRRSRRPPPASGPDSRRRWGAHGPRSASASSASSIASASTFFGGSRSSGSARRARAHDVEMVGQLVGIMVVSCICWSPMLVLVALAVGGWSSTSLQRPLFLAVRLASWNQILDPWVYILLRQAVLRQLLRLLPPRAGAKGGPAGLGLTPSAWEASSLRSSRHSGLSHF
Description: Binding Assay for the Human Prostanoid EP1 Receptor
Competition assay using [^3H]-PGE2.
Compound potencies are determined using a radioligand binding assay. In this assay compound potencies are determined from their ability to compete with tritiated prostaglandin E2 ([^3H]-PGE2) for binding to the human EP1 receptor.
This assay utilises Chinese hamster ovary-K1 (CHO-K1) cells into which a stable vector containing the EP1 cDNA has previously been transfected. Cells are cultured in suitable flasks containing culture medium such as DMEM:F-12 supplemented with 10% v/v foetal calf serum, 2 mM L-glutamine, 0.25 mg/ml geneticin, 10 μg/ml puromycin and 10 μM indomethacin.
Cells are detached from the culture flasks by incubation in calcium and magnesium free phosphate buffered saline containing 1 mM disodium ethylenediaminetetraacetic acid (Na2EDTA) and 10 μM indomethacin for 5 min. The cells are isolated by centrifugation at 250×g for 5 mins and suspended in an ice cold buffer such as 50 mM Tris, 1 mM Na2EDTA, 140 mM NaCl, 10 μM indomethacin (pH 7.4). The cells are homogenised using a Polytron tissue disrupter (2×10s burst at full setting), centrifuged at 48,000×g for 20 mins and the pellet containing the membrane fraction is washed (optional) three times by suspension and centrifugation at 48,000×g for 20 mins. The final membrane pellet is suspended in an assay buffer such as 10 mM 2-[N-morpholino]ethanesulphonic acid, 1 mM Na2EDTA, 10 mM MgCl2 (pH 6). Aliquots are frozen at −80° C. until required.
For the binding assay the cell membranes, competing compounds and [^3H]-PGE2 (3 nM final assay concentration) are incubated in a final volume of 100 μl for 30 min at 30° C. All reagents are prepared in assay buffer. Reactions are terminated by rapid vacuum filtration over GF/B filters using a Brandell cell harvester. The filters are washed with ice cold assay buffer, dried and the radioactivity retained on the filters is measured by liquid scintillation counting in Packard TopCount scintillation counter.
The data are analysed using non linear curve fitting techniques to determine the concentration of compound producing 50% inhibition of specific binding (IC50).

EP3 receptors = target: T2, EP3 receptors (Homo sapiens, UniProt P43115); assay: human EP3 calcium mobilisation assay (CHO-K1 cells, PGE2, FLIPR); assay type: cell-based; settings: free bases or sodium salts; averages of a number of experiments
T2 construct: expressed in transfected cells; host or cells: CHO-K1
T2 sequence (P43115 1-390): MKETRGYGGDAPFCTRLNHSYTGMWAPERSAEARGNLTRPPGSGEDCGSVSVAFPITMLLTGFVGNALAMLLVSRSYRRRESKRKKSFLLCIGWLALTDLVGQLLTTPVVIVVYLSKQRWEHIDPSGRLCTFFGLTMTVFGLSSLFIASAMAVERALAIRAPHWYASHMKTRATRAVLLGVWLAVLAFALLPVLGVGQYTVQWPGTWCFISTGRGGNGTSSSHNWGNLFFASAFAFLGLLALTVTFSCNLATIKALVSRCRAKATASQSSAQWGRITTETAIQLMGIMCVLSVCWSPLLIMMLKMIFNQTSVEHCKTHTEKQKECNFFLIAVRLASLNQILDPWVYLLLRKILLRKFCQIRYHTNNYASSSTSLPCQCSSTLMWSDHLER
Description: Briefly, the antagonist properties of compounds are assessed by their ability to inhibit the mobilisation of intracellular calcium ([Ca^2+]i) in response to activation of EP1 or EP3 receptors by the natural agonist hormone prostaglandin E2 (PGE2). Increasing concentrations of antagonist reduce the amount of calcium that a given concentration of PGE2 can mobilise. The net effect is to displace the PGE2 concentration-effect curve to higher concentrations of PGE2. The amount of calcium produced is assessed using a calcium-sensitive fluorescent dye such as Fluo-4, AM and a suitable instrument such as a Fluorimetric Imaging Plate Reader (FLIPR). Increasing amounts of [Ca^2+]i produced by receptor activation increase the amount of fluorescence produced by the dye and give rise to an increasing signal. The signal may be detected using the FLIPR instrument and the data generated may be analysed with suitable curve-fitting software.
The human EP1 or EP3 calcium mobilisation assay (hereafter referred to as ‘the calcium assay’) utilises Chinese hamster ovary-K1 (CHO-K1) cells into which a stable (pCIN; BioTechniques 20 (1996): 102-110) vector containing either EP1 or EP3 cDNA has previously been transfected. Cells are cultured in suitable flasks containing culture medium such as DMEM:F-12 supplemented with 10% v/v foetal calf serum, 2 mM L-glutamine, 0.25 mg/ml geneticin, 100 μM flurbiprofen and 10 µg/ml puromycin.
For assay, cells are harvested using a proprietary reagent that dislodges cells such as Versene. Cells are re-suspended in a suitable quantity of fresh culture media for introduction into a 384-well plate. Following incubation for 24 hours at 37° C. the culture media is replaced with a medium containing Fluo-4 and the detergent pluronic acid, and a further incubation takes place. Concentrations of compounds are then added to the plate in order to construct concentration-effect curves. This may be performed on the FLIPR in order to assess the agonist properties of the compounds. Concentrations of PGE2 are then added to the plate in order to assess the antagonist properties of the compounds.
The data so generated may be analysed by means of a computerised curve-fitting routine. The concentration of compound that elicits a half-maximal inhibition of the calcium mobilisation induced by PGE2 (pIC50) may then be estimated.

**Q.** What does the source list for `O=C([O-])c1cccc(Cc2cc(Cl)ccc2OCC2CC2)n1.[Na+]` [Example 17, Sodium 6-({5-chloro-2-[(cyclopropylmethyl)oxy]phenyl}methyl)-2-pyridinecarboxylate]?
**A.** pIC50 value in the binding assay for the human prostanoid EP1 receptor (EP1 receptors): ≥ 6; functional pKi value, human EP3 calcium mobilisation assay (EP3 receptors): ≤ 6.5

**Q.** `C=C(C)COc1ccc(Cl)cc1Cc1cccc(C(=O)O)n1` [Example 2, 6-({5-Chloro-2-[(2-methyl-2-propen-1-yl)oxy]phenyl}methyl)-2-pyridinecarboxylic acid] was tested. Which “pIC50 value in the binding assay for the human prostanoid EP1 receptor” value (shortened to “pIC50 value in the binding assay”) (EP1 receptors) did it give?
**A.** ≥ 6

**Q.** What about the “functional pKi value, human EP3 calcium mobilisation assay” value (EP3 receptors) of the same compound?
**A.** ≤ 6.5

**Q.** `O=C([O-])c1cccc(Cc2cc(Cl)ccc2OCc2cc(F)c(F)cc2F)n1.[Na+]` [Example 10, Sodium 6-[(5-chloro-2-{[(2,4,5-trifluorophenyl)methyl]oxy}phenyl)methyl]-2-pyridinecarboxylate] was tested. Which “pIC50 value in the binding assay” value (EP1 receptors) did it give?
**A.** ≥ 6

**Q.** And the “functional pKi value, human EP3 calcium mobilisation assay” value (EP3 receptors)?
**A.** ≤ 6.5

**Q.** For `COc1ccc(S(=O)(=O)NC(=O)c2cccc(Cc3cc(Cl)ccc3OCc3ccc(Cl)cc3F)n2)cc1` [Example 32, 6-[(5-Chloro-2-{[(4-chloro-2-fluorophenyl)methyl]oxy}-phenyl)methyl]-N-{[4-methoxyphenyl]suiphonyl}-2-pyridine-carboxamide], which “pIC50 value in the binding assay” value (EP1 receptors) is on record?
**A.** ≥ 6

**Q.** And the “functional pKi value, human EP3 calcium mobilisation assay” value (EP3 receptors)?
**A.** ≤ 6.5

**Q.** Which results are given for `Cc1ccc(C(=O)[O-])nc1Cc1cc(Cl)ccc1OCc1ccc(Cl)cc1F.[Na+]` [Example 39, 6-[(5-Chloro-2-{[(4-chloro-2-fluorophenyl)methyl]oxy}-phenyl)methyl]-5-methyl-2-pyridinecarboxylic acid, sodium salt]?
**A.** pIC50 value in the binding assay for the human prostanoid EP1 receptor (EP1 receptors): ≥ 6; functional pKi value, human EP3 calcium mobilisation assay (EP3 receptors): ≤ 6.5

**Q.** With `CS(=O)(=O)NC(=O)c1cccc(Cc2cc(Cl)ccc2OCc2ccc(Cl)cc2F)n1` [Example 29, 6-[(5-Chloro-2-{[(4-chloro-2-fluorophenyl)methyl]oxy}-phenyl)methyl]-N-(methylsulphonyl)-2-pyridinecarboxamide] as the compound, how does the “pIC50 value in the binding assay” value (EP1 receptors) read?
**A.** ≥ 6

**Q.** What about the “functional pKi value, human EP3 calcium mobilisation assay” value (EP3 receptors) of the same compound?
**A.** ≤ 6.5

**Q.** For `O=C([O-])c1cccc(Cc2cc(Cl)ccc2OCC2CCCCC2)n1.[Na+]` [Example 18, Sodium 6-({5-chloro-2-[(cyclohexylmethyl)oxy]phenyl}methyl)-2-pyridinecarboxylate], which “pIC50 value in the binding assay” value (EP1 receptors) is on record?
**A.** ≥ 6

**Q.** What about the “functional pKi value, human EP3 calcium mobilisation assay” value (EP3 receptors) of the same compound?
**A.** ≤ 6.5

**Q.** Which results are given for `O=C(NS(=O)(=O)c1ccccc1)c1cccc(Cc2cc(Cl)ccc2OCc2ccc(Cl)cc2F)n1` [Example 28, 6-[(5-chloro-2-{[(4-chloro-2-fluorophenyl)methyl]oxy}phenyl)-methyl]-N-(phenylsulphonyl)-2-pyridinecarboxamide]?
**A.** pIC50 value in the binding assay for the human prostanoid EP1 receptor (EP1 receptors): ≥ 6; functional pKi value, human EP3 calcium mobilisation assay (EP3 receptors): ≤ 6.5

**Q.** What does the source list for `O=C([O-])c1cccc(Cc2cc(Cl)ccc2OCc2ccc(Cl)cc2)n1.[Na+]` [Example 9, Sodium 6-[(5-chloro-2-{[(4-chlororophenyl)methyl]oxy}phenyl)methyl]-2-pyridinecarboxylate]?
**A.** pIC50 value in the binding assay for the human prostanoid EP1 receptor (EP1 receptors): ≥ 6; functional pKi value, human EP3 calcium mobilisation assay (EP3 receptors): ≤ 6.5

**Q.** Which results are given for `Cc1ccc(Cc2cc(Cl)ccc2OCc2ccc(Cl)cc2F)nc1C(=O)[O-].[Na+]` [Example 40, 6-[(5-Chloro-2-{[(4-chloro-2-fluorophenyl)methyl]oxy}-phenyl)methyl]-3-methyl-2-pyridinecarboxylic acid, sodium salt]?
**A.** pIC50 value in the binding assay for the human prostanoid EP1 receptor (EP1 receptors): ≥ 6; functional pKi value, human EP3 calcium mobilisation assay (EP3 receptors): ≤ 6.5

**Q.** Which results are given for `Fc1cc(Cl)ccc1COc1ccc(Cl)cc1Cc1cccc(-c2nnn[nH]2)n1` [Example 38, 2-[(5-Chloro-2-{[(4-chloro-2-fluorophenyl)methyl]oxy}phenyl)-methyl]-6-(1H-tetrazol-5-yl)pyridine]?
**A.** pIC50 value in the binding assay for the human prostanoid EP1 receptor (EP1 receptors): ≥ 6; functional pKi value, human EP3 calcium mobilisation assay (EP3 receptors): ≤ 6.5

**Q.** With `CCC(CC)COc1ccc(Cl)cc1Cc1cccc(C(=O)[O-])n1.[Na+]` [Example 20, Sodium 6-({5-chloro-2-[(2-ethylbutyl)oxy]phenyl}methyl)-2-pyridinecarboxylate] as the compound, how does the “pIC50 value in the binding assay” value (EP1 receptors) read?
**A.** ≥ 6

**Q.** What about the “functional pKi value, human EP3 calcium mobilisation assay” value (EP3 receptors) of the same compound?
**A.** ≤ 6.5

**Q.** Which “pIC50 value in the binding assay” value (EP1 receptors) does the source give for `CCCS(=O)(=O)NC(=O)c1cccc(Cc2cc(Cl)ccc2OCc2ccc(Cl)cc2F)n1` [Example 30, 6-[(5-Chloro-2-{[(4-chloro-2-fluorophenyl)methyl]oxy}-phenyl)methyl]-N-(propylsulphonyl)-2-pyridinecarboxamide] here?
**A.** ≥ 6

**Q.** And the “functional pKi value, human EP3 calcium mobilisation assay” value (EP3 receptors)?
**A.** ≤ 6.5

**Q.** `O=C([O-])c1cccc(Cc2cc(Cl)ccc2OCC2CCCC2)n1.[Na+]` [Example 14, Sodium 6-({5-chloro-2-[(cyclopentylmethyl)oxy]phenyl}methyl)-2-pyridinecarboxylate] was tested. Which “pIC50 value in the binding assay” value (EP1 receptors) did it give?
**A.** ≥ 6

**Q.** And the “functional pKi value, human EP3 calcium mobilisation assay” value (EP3 receptors)?
**A.** ≤ 6.5

**Q.** For `O=C(NS(=O)(=O)c1ccc(Br)cc1)c1cccc(Cc2cc(Cl)ccc2OCc2ccc(Cl)cc2F)n1` [Example 33, N-[(4-Bromophenyl)sulphonyl]-6-[(5-chloro-2-{[(4-chloro-2-fluorophenyl)methyl]oxy}phenyl)-methyl]-2-pyridinecarboxamide], which “pIC50 value in the binding assay” value (EP1 receptors) is on record?
**A.** ≥ 6

**Q.** And the “functional pKi value, human EP3 calcium mobilisation assay” value (EP3 receptors)?
**A.** ≤ 6.5

**Q.** What does the source list for `CC(=O)Nc1ccc(S(=O)(=O)NC(=O)c2cccc(Cc3cc(Cl)ccc3OCc3ccc(Cl)cc3F)n2)cc1` [Example 35, N-{[4-(Acetylamino)phenyl]-sulphonyl}-6-[(5-chloro-2-{[(4-chloro-2-fluorophenyl)methyl]-oxy}phenyl)methyl]-2-pyridine-carboxamide]?
**A.** pIC50 value in the binding assay for the human prostanoid EP1 receptor (EP1 receptors): ≥ 6; functional pKi value, human EP3 calcium mobilisation assay (EP3 receptors): ≤ 6.5
